Assay: Cure time under ultraviolet radiation
Conditions: in Acrylamide-polymer B; one weight percent (P-5 two weight percent); 3 seconds per pass, about 400 mJ/cm²

| Compound | CURE TIME SECONDS |
| --- | --- |
| CCOC(OCC)C(=O)c1ccccc1 [P-2, diethoxyacetophenone] | 15 s |
| CC(C)(O)C(=O)c1ccccc1 [P-1, 2 hydroxy-2-methylphenylpropan-1-one] | 10 s |
| O=C(c1ccccc1)C1(O)CCCCC1 [P-3, (1-hydroxycyclohexyl)phenylmethanone] | 5 s |
| O=C(c1ccccc1)c1ccccc1 [P-4, benzophenone] | >70 s |
